Source: ChEMBL document CHEMBL3988442, “University of Dundee, Small-Polar-MMV Screening Library” (2021).

Sequences of proteins named here, by UniProt entry; tags and fusion partners are left off. Residues count along the entry.
UniProt P9WFT3, whole entry: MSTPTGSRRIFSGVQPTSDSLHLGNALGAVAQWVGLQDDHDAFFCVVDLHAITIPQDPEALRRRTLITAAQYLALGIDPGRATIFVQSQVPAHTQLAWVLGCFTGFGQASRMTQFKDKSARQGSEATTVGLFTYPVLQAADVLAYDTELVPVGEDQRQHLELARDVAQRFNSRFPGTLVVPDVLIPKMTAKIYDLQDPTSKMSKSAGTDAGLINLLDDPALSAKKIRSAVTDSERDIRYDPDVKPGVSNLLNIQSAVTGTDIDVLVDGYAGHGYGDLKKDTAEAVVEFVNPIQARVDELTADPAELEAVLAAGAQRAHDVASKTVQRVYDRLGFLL
UniProt Q8IDJ8, 1-583: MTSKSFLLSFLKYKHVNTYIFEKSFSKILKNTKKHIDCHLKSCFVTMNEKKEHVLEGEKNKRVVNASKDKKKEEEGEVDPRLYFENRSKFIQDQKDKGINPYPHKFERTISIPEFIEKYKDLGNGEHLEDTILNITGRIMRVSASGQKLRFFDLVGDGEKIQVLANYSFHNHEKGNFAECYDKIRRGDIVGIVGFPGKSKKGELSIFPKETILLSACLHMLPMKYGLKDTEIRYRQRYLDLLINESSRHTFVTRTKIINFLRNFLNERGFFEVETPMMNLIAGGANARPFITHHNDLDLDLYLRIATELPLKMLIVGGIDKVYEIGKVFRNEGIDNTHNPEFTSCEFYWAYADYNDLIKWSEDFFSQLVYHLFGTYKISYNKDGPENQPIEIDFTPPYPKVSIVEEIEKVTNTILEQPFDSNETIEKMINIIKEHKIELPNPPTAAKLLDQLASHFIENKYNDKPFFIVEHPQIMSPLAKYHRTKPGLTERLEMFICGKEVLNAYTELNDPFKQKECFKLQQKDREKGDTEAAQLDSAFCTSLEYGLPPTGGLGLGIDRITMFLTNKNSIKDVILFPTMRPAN
UniProt P9WPC5, whole entry: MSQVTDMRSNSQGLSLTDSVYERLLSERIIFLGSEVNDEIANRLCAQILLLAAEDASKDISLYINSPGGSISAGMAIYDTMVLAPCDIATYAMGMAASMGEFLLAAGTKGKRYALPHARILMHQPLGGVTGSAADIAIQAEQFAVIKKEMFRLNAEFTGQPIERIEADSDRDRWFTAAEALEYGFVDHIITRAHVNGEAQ
UniProt P9WPC3, whole entry partner: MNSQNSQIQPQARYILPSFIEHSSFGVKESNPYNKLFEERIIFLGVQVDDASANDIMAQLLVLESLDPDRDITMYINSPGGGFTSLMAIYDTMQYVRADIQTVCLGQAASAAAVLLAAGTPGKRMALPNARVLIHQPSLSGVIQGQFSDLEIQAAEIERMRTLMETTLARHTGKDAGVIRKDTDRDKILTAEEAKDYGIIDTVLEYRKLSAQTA

A: 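Enzyme assay of tryptophanyl-tRNA synthetase; the read-out is not stated. Target: Tryptophan-tRNA ligase, Mycobacterium tuberculosis (UniProt P9WFT3). Concentration: 10 µM. Direction is not recorded; retested compounds ran higher, which suggests that high means inhibition. Of about 65,000 compounds tested this way, about 64 (0.098%) reached 50% or more in at least one test.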
B: 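Enzyme assay of the cytosolic lysyl-tRNA synthetase in 384-well plates, read by luminescence. Target: Lysine-tRNA ligase, Plasmodium falciparum 3D7 (UniProt Q8IDJ8). Tested at 30 µM. Direction is inferred from only a few compounds that gave an IC50; most scored high, so higher reads as stronger inhibition. Of about 69,000 compounds tested this way, about 49 (0.071%) reached 50% or more in at least one test.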
C: 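ClpP1P2, Mycobacterium tuberculosis (UniProt P9WPC5 and UniProt P9WPC3). Protease assay of ClpP1P2, read by the AMC dye that it sets free. Concentration: 50 µM. Direction is inferred from only a few compounds that gave an IC50; most scored high, so higher reads as stronger inhibition. Most other retested compounds had strongly negative values. Size under these conditions: about 69,000 compounds, about 10 of them at 50% or above in at least one test.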

Each number is a percent effect as filed.
The record does not define 0% and 100%; most values in the screen are far below 50% and negative numbers occur (in some assays of this library far below -100).
This is an unselected part of the compounds tested.
A dash means the value is not listed here; it may have been measured.

| # | compound | A | B | C |
|---|---|---|---|---|
| 1 | `Cc1nc(C(=O)N2CCC(c3cc(CCO)n(C)n3)C2)co1` (centres unmarked) | 18.96 | -0.1332 | -53.95 |
| 2 | `CCc1ccc(C(=O)Nc2ccc(CC3CC(=O)NC3=O)cc2)cc1` (centres unmarked) | 4.348 | 3.489 | 0.02243 |
| 3 | `Cn1cc(S(=O)(=O)NC(=O)C2(c3cccc(Cl)c3)CC2)cn1` | -1.475 | 4.195 | 2.851 |
| 4 | `CC1COCCN1Cc1noc(C(C)(C)C)n1` (centres unmarked) | -4.608 | -1.479 | -13.28 |
| 5 | `CC(=O)N1CC(=O)N(c2ccccc2)CC12CCN(Cc1ccoc1)C2` (centres unmarked) | 0.3317 | 6.139 | 10.74 |
| 6 | `CC(=O)N1CC[C@H]2OCC[C@@]2(C(=O)NCc2ccco2)C1` | -1.784 | 5.672 | 4.165 |
| 7 | `Cc1cnc(N2CCC[C@@H]3CN(S(C)(=O)=O)C[C@@H]32)nc1` | -4.209 | 3.897 | 2.185 |
| 8 | `Cc1ccc([C@@H]2CN(C(=O)c3cc[nH]c3)C[C@H]2NC(=O)C2CC2)cc1` | 1.458 | 8.151 | 3.451 |
| 9 | `CC(C)c1nc(C2CCCN2CCCc2nc3ccccc3o2)no1` (centres unmarked) | 1.017 | 0.891 | 3.241 |
| 10 | `COCCc1noc(CN2CCCCC2Cn2cncn2)n1` (centres unmarked) | -5.838 | 3.221 | -1.681 |
| 11 | `CC(C)c1ccc(-c2nonc2N)cc1` | - | 9.8 | 3.784 |
| 12 | `CNC(=O)CCNC(=O)CCc1c(C)nc2cc(O)nn2c1C` | 0.3895 | -0.5322 | -0.1091 |
| 13 | `CC(C)c1nc(C2CCCN(C(=O)c3ccc(N(C)C)nn3)C2)no1` (centres unmarked) | 3.096 | 0.4251 | -31.99 |
| 14 | `Cc1nc(C)n(Cc2cccc(NC(=O)N(C)CCC(C)O)c2)n1` (centres unmarked) | -0.3632 | 0.7919 | -8.12 |
| 15 | `Cc1noc(C)c1CN1CCn2c(CN3CCN(C)CC3)cnc2C1` | 1.833 | 3.656 | 11.74 |
| 16 | `COc1cccc(-n2ccc3nc(N4CCCC4)ncc3c2=O)c1` | -1.613 | 3.803 | -10.83 |
| 17 | `CN(C)C(=O)CCC(=O)N1CCC2(CC1)COC2` | -2.344 | 3.487 | 4.503 |
| 18 | `CCN(CC)C(=O)N1CCN(C2=NCC(C)S2)CC1` (centres unmarked) | -3.818 | -3.937 | -2.745 |
| 19 | `Cc1nc2c(NCC(C)N(C)c3ccccc3)ncnc2o1` (centres unmarked) | -2.918 | 3.289 | -3.815 |
| 20 | `CC(C)c1cc2c(s1)NC(c1ccccn1)NC2=O` (centres unmarked) | -2.736 | 3.16 | -8.387 |
| 21 | `CCOc1ccccc1CN(C)C(C)c1nc(-c2cccnc2)no1` (centres unmarked) | -4.397 | 4.942 | -9.346 |
| 22 | `CC(C)Cc1cc(C(=O)NC(C)(C)c2nnc(N)s2)n(C)n1` | 3.25 | 5.575 | -8.524 |
| 23 | `CC(C)(O)CCc1cccc(C(=O)NCCC2=CSC3=NCCCN23)c1` | -1.41 | -1.118 | -19.08 |
| 24 | `COc1ccc2cc(C3CN(C(=O)CN4CCCC4)CCO3)ccc2c1` (centres unmarked) | -3.957 | 0.4604 | 2.388 |
| 25 | `Fc1ccc(CCC2CCCN(Cc3c[nH]cn3)C2)c(F)c1` (centres unmarked) | 2.43 | -0.2915 | -2.752 |
| 26 | `O=C(CCc1nnc2ccccn2c1=O)NCc1ccco1` | 5.761 | -2.517 | -3.475 |
| 27 | `CN(C)Cc1cn2c(n1)CN(C1CCOC1)CC2` (centres unmarked) | -6.987 | 1.759 | -0.3462 |
| 28 | `CCN(CC)C(=O)Cn1ccc2cc(NC(=O)C3CCCO3)ccc21` (centres unmarked) | 4.088 | 4.936 | 9.597 |
| 29 | `Cc1ccc(OC2(C(=O)O)CCN(C(=O)c3ccsc3)CC2)cn1` | -1.215 | 9.13 | -2.165 |
| 30 | `COc1c(C2CCCN2CC(=O)Nc2cccnc2)c(C)nn1C` (centres unmarked) | 5.962 | 0.6986 | -6.411 |
| 31 | `COCCOc1ncccc1-c1noc([C@@H]2CCCN2C2CCC2)n1` | -2.959 | 3.758 | 2.595 |
| 32 | `CCN(CC)CCCN1CCC(NC(=O)OC(C)(C)C)CC1` | 1.343 | 4.803 | 2.989 |
| 33 | `CC(C)c1nc(CN(C)Cc2ccc(O)c(Cl)c2)cs1` | -1.731 | 3.717 | -10.04 |
| 34 | `NC(=O)CN1CCCN(C(=O)Cc2ccc(Br)cc2)CC1` | -0.6555 | 2.877 | -21.93 |
| 35 | `Cc1csc(CN2CC[C@H]3C[C@@H](c4nnc(C)[nH]4)O[C@@H]3C2)n1` | -7.357 | -0.1062 | -20.5 |
| 36 | `CCN(CC1CN(Cc2cccnc2)CCO1)c1cccnn1` (centres unmarked) | 2.969 | 0.3202 | -6.274 |
| 37 | `Cc1cccc(COc2ccc(C(C)NC(=O)CNC(N)=O)cc2)c1` (centres unmarked) | -11.51 | 5.214 | -10.35 |
| 38 | `O=C(NCCOc1ccc(Cl)cc1)N1CCS(=O)(=O)CC1` | 0.8166 | 3.939 | -2.133 |
| 39 | `CCOc1ccccc1CN1CCc2nc3ccsc3c(=O)n2CC1` | - | 1.544 | -12.34 |
| 40 | `COCC(O)CN(C)C(=O)NCc1ccc(-c2ccn[nH]2)cc1` (centres unmarked) | 1.928 | 3.802 | -6.381 |
| 41 | `CC(=O)Cc1c(C)nn(-c2cncc(N)c2)c1C` | 2.927 | 7.511 | -1.515 |
| 42 | `NCc1csc(CCc2ccccc2)n1` | -5.811 | 2.39 | -2.094 |
| 43 | `O=C1CCCN1Cc1ncn2c1CN(C(=O)N1CCCC1)CCC2` | -6.806 | 1.69 | -7.799 |
| 44 | `CCC(CO)N(Cc1ccc(F)cc1)Cc1c(C)nn(C)c1Cl` (centres unmarked) | 2.581 | 4.459 | 13.19 |
| 45 | `CCOC(=O)CCNC(=O)N1CCCC(CNC(=O)c2ccco2)C1` (centres unmarked) | 0.3303 | 1.199 | -13.26 |
| 46 | `COc1ccccc1OCCNCc1c(C(C)C)nn(C)c1N(C)C` | 3.432 | 0.4536 | -12.78 |
| 47 | `COc1ccc(OCc2cc(C(=O)N3C[C@@H](C)O[C@@H](C)C3)n[nH]2)c(Cl)c1` | -2.143 | -0.2134 | -16.04 |
| 48 | `CCOc1nnc(CN2CCC(c3nc4ccccc4[nH]3)CC2)s1` | -2.285 | 5.987 | 1.184 |
| 49 | `COCCN1C(=O)CCC12CCN(C(=O)NC(C)C)CC2` | 2.214 | 4.919 | 7.29 |
| 50 | `Cc1noc(C)c1CN1CC2(CCN(Cc3c[nH]cn3)CC2)CC1=O` | 0.3228 | 5.026 | -17.05 |